Results: paper doi:10.1101/231043

Biological target: T1, GFP-tagged FERONIA (FER-GFP) (A. thaliana) (UniProt Q9SCZ4)
T1 sequence: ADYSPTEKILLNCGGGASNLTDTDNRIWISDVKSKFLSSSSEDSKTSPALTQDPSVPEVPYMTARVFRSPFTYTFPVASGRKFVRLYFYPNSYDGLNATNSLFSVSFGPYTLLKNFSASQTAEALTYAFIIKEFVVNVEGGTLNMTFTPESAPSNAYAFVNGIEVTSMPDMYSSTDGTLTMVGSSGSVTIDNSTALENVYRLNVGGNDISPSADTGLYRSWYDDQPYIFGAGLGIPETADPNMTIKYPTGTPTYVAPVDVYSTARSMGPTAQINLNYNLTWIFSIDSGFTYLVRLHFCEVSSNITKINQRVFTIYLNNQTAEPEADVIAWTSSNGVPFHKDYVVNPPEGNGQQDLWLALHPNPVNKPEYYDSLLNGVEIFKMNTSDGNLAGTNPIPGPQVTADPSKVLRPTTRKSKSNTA
Assay: co-IP

binding: binds
Substance: HA-tagged N-terminal part of LRX4 (LRR4-HA) (A. thaliana) (domain or fragment)

Results are given in words; binding and its absence hold for the method and conditions named. Binding seen in cells or lysates may run through a third protein. A result given as binding can be weak or reduced; the word gives no strength. Where a sequence is shown, tags or fusion partners need not be part of it.
